Experimental data: the supplement of paper PMC10849652
The other results are listed elsewhere or left out.

Sequences of proteins named here, by UniProt entry; tags and fusion partners are left off. A change or cut given only in a name is not applied to a line headed by its entry.
UniProt Q9BUA3: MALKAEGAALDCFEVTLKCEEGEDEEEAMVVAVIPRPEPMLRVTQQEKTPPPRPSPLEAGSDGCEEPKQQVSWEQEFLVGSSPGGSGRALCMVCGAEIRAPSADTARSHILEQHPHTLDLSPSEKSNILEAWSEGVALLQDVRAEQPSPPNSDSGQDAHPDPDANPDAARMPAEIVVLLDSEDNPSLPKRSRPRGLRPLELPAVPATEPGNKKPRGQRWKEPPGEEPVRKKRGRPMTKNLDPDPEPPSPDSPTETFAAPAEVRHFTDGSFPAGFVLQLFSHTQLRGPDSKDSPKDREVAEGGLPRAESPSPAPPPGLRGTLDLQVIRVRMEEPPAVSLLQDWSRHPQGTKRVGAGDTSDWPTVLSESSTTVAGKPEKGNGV
UniProt Q08170: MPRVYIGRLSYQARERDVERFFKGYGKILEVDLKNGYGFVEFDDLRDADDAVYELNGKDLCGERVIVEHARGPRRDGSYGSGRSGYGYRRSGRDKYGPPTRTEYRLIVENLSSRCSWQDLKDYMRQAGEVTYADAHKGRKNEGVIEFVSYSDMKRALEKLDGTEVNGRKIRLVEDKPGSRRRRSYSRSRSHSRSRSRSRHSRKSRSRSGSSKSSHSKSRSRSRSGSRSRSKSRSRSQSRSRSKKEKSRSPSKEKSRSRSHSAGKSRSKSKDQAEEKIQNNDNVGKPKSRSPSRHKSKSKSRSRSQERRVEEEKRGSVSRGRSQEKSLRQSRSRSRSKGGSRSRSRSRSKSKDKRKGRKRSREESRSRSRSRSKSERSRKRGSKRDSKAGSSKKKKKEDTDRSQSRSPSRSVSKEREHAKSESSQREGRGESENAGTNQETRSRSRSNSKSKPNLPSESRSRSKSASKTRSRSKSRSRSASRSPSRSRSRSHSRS
UniProt P42224: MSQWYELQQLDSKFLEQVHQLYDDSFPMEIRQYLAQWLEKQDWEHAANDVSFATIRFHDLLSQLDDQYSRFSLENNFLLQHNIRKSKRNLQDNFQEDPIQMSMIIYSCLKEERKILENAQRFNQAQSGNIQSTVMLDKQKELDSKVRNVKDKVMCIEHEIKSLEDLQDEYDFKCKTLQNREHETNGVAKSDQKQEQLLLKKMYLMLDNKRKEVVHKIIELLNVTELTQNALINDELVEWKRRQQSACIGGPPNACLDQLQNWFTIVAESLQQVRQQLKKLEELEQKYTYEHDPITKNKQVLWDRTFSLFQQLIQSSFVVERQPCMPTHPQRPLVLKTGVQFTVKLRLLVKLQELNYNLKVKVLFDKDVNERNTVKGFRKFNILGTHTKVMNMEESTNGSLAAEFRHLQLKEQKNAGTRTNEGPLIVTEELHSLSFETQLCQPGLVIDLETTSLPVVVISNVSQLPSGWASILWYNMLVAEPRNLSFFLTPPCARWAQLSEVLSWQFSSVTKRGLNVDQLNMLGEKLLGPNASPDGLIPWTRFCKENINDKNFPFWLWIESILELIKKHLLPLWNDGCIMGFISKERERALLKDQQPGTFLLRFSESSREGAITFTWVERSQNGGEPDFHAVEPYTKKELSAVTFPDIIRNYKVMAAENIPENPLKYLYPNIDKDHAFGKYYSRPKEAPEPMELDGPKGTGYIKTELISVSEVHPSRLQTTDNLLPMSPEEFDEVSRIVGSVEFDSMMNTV
UniProt P35270: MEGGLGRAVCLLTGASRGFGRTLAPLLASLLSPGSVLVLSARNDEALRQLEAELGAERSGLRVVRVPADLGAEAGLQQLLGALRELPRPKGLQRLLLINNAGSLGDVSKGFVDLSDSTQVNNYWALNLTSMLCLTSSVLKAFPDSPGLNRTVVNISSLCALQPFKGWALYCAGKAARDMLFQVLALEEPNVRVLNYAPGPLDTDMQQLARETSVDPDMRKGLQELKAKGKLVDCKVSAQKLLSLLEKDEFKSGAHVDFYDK
UniProt P49458: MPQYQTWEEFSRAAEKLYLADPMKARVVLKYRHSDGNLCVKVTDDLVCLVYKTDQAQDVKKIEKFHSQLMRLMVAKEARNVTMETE
UniProt P43307: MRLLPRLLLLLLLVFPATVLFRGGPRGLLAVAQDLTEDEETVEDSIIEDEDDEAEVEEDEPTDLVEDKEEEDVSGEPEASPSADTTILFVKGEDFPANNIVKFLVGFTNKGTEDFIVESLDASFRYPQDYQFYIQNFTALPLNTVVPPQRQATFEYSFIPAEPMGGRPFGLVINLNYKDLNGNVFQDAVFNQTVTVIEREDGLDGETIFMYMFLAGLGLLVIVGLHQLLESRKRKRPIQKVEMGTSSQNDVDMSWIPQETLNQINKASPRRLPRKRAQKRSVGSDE
UniProt P05455: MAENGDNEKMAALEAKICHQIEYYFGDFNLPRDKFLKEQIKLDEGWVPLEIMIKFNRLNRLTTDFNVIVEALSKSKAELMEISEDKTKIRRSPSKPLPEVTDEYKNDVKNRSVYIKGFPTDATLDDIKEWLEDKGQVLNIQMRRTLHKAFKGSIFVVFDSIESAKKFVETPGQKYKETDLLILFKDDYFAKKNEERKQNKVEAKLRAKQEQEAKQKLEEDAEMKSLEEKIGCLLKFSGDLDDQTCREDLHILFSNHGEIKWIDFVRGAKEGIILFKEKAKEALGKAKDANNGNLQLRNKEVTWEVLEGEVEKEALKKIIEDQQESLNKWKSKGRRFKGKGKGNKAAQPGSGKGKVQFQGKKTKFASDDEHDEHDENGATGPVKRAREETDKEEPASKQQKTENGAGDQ
UniProt Q9H254, whole entry, looked up: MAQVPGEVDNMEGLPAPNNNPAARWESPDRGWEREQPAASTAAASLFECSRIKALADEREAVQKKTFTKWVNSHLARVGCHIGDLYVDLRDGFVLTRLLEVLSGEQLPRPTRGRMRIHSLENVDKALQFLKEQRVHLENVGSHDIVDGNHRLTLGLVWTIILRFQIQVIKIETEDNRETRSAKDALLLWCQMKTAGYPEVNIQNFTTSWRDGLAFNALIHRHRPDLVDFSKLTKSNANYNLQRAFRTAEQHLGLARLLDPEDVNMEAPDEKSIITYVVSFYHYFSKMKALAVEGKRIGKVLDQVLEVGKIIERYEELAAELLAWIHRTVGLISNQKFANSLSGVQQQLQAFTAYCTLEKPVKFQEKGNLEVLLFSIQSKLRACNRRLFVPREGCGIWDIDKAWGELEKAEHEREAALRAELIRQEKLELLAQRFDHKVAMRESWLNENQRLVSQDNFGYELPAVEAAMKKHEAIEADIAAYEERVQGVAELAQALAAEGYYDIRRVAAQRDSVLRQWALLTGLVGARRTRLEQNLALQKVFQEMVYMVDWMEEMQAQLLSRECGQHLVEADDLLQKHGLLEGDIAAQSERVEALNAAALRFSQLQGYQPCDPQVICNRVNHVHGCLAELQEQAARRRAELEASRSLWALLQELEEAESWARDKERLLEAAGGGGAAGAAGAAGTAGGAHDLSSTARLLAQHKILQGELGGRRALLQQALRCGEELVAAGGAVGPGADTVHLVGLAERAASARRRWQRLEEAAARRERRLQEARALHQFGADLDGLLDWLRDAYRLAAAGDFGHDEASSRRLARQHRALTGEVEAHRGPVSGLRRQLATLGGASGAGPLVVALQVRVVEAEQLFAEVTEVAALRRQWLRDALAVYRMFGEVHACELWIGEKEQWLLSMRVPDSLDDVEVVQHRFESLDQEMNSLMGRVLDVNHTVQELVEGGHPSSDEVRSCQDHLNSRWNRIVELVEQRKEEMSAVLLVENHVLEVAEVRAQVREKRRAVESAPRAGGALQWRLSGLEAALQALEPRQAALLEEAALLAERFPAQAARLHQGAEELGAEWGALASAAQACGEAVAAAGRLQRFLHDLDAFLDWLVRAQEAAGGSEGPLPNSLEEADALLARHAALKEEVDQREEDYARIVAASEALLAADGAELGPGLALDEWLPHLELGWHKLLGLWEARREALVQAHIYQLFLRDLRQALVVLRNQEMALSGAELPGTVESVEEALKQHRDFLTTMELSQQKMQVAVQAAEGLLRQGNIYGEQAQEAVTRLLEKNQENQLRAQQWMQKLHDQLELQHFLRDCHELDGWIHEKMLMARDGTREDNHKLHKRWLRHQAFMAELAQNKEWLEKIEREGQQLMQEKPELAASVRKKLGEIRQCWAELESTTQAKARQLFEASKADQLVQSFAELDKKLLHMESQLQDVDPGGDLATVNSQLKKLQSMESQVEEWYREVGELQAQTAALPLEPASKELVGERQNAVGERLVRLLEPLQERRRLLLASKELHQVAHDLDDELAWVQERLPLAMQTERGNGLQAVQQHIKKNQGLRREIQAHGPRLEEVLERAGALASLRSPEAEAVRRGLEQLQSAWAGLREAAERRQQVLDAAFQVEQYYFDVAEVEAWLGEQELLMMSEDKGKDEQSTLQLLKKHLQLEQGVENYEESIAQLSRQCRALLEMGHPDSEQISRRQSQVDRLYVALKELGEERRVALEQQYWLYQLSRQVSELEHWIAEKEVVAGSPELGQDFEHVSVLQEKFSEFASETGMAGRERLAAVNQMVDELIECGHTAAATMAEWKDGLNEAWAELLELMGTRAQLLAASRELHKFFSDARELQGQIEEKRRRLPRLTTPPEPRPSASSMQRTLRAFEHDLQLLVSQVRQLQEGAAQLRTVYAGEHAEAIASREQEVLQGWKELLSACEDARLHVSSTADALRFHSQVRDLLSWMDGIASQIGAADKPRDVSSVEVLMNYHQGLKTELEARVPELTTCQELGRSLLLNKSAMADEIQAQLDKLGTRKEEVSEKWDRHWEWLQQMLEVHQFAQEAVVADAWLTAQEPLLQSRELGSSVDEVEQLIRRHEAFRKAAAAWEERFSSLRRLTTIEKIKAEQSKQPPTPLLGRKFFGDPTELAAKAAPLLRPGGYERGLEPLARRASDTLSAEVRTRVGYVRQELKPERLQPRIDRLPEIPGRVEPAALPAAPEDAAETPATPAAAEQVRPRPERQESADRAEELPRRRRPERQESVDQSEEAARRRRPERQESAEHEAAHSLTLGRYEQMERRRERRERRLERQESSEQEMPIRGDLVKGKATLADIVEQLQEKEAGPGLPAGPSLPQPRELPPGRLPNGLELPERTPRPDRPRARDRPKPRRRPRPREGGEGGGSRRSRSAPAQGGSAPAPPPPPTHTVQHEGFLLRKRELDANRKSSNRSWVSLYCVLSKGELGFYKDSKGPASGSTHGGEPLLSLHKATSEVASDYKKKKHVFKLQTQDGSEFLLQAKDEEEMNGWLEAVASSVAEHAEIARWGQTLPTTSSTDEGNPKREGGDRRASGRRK
UniProt P52630: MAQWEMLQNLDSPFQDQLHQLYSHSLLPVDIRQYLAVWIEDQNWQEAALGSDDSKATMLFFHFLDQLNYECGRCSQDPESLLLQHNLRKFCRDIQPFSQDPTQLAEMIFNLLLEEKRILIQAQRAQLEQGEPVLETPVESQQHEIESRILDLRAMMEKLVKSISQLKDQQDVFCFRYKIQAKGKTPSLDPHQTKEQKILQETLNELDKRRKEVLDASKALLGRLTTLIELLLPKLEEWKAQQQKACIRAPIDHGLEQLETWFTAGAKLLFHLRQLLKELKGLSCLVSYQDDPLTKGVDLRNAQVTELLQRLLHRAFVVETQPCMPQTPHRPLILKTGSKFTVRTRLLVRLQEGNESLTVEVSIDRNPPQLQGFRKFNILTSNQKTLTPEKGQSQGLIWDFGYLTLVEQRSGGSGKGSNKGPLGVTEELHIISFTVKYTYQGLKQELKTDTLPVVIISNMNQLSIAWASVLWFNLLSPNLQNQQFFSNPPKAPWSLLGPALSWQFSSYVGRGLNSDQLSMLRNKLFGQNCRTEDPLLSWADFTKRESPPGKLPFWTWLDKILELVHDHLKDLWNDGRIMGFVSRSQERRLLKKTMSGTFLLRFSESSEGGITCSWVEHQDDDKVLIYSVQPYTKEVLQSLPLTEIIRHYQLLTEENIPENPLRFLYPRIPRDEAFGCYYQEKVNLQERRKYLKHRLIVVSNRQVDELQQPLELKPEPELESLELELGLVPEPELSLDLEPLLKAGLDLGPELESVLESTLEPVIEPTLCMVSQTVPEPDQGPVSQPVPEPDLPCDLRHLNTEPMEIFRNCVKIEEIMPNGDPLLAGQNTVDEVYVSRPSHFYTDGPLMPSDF
UniProt Q9NZD8: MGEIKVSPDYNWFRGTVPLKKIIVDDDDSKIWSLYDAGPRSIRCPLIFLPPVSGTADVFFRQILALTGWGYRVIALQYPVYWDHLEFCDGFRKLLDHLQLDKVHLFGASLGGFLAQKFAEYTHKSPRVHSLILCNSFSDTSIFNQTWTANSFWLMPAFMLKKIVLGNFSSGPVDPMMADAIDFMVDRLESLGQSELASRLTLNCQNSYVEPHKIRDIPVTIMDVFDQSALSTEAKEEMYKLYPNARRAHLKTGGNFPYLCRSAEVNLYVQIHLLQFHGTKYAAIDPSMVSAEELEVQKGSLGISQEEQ

Experiments:
Test in all cases: log2 fold change, soluble protein after heating vs DMSO (PISA); higher = thermal stabilisation; K562 lysate, 10 uM; active = over 0.2 and 3.5 SD of the protein, either way, in both replicates (recomputed)
lapatinib = compound: CS(=O)(=O)CCNCc1ccc(-c2ccc3ncnc(Nc4ccc(OCc5cccc(F)c5)c(Cl)c4)c3c2)o1 [lapatinib]
Method in brief: (§1)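 Quantification was by TMTpro 16plex LC-MS/MS with equalised channel sums, applied to the supernatant after 21,000xg for 90 min. Samples were crude K562 extract at 1 mg/mL protein in PBS pH 7.4 with 1 mM MgCl2, treated with 10 μM compound for 30 min, heated for 3 min across 48°C-58°C, pooled and brought to 0.5% NP-40 at 4°C. Values are log-two fold changes in thermal stability relative to solvent controls, from duplicates.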

pictilisib = compound: CS(=O)(=O)N1CCN(Cc2cc3nc(-c4cccc5[nH]ncc45)nc(N4CCOCC4)c3s2)CC1 [pictilisib]
Method in brief: as §1

crizotinib = compound: C[C@@H](Oc1cc(-c2cnn(C3CCNCC3)c2)cnc1N)c1c(Cl)ccc(F)c1Cl [crizotinib]
Method in brief: as §1

[1] = compound: C[C@H](C1=CC=C(C=C1)C(=O)NC2=C3C=CNC3=NC=C2)N
Method in brief: as §1

duvelisib = compound: C[C@H](Nc1ncnc2nc[nH]c12)c1cc2cccc(Cl)c2c(=O)n1-c1ccccc1 [duvelisib]
Method in brief: as §1

gandotinib = compound: Cc1cc(Nc2cc(CN3CCOCC3)c3nc(C)c(Cc4ccc(Cl)cc4F)n3n2)n[nH]1 [gandotinib]
Method in brief: as §1

tozasertib = compound: Cc1cc(Nc2cc(N3CCN(C)CC3)nc(Sc3ccc(NC(=O)C4CC4)cc3)n2)n[nH]1 [tozasertib]
Method in brief: as §1

doramapimod = compound: Cc1ccc(-n2nc(C(C)(C)C)cc2NC(=O)Nc2ccc(OCCN3CCOCC3)c3ccccc23)cc1 [doramapimod]
Method in brief: as §1

bafetinib = compound: Cc1ccc(NC(=O)c2ccc(CN3CC[C@H](N(C)C)C3)c(C(F)(F)F)c2)cc1Nc1nccc(-c2cncnc2)n1 [bafetinib]
Method in brief: as §1

[2] = compound: Cc1cccc(CC(=O)N2CCc3c2ccc(-c2cn(C)c4ncnc(N)c24)c3F)n1
Method in brief: as §1

nilotinib = compound: Cc1cn(-c2cc(NC(=O)c3ccc(C)c(Nc4nccc(-c5cccnc5)n4)c3)cc(C(F)(F)F)c2)cn1 [nilotinib]
Method in brief: as §1

[3] = compound: Cc1nc(Nc2n[nH]c3c2CN(C(=O)N[C@H](CN(C)C)c2ccccc2)C3(C)C)c2sccc2n1
Method in brief: as §1

dasatinib = compound: Cc1nc(Nc2ncc(C(=O)Nc3c(C)cccc3Cl)s2)cc(N2CCN(CCO)CC2)n1 [dasatinib]
Method in brief: as §1

[4] = compound: Cc1ncc(-c2ccnc(Nc3ccc(S(C)(=O)=O)cc3)n2)n1C(C)C
Method in brief: as §1

[5] = compound: Cn1cc(-c2ccc3c(c2)CCN3C(=O)Cc2cccc(C(F)(F)F)c2)c2c(N)ncnc21
Method in brief: as §1

quisinostat = compound: Cn1cc(CNCC2CCN(c3ncc(C(=O)NO)cn3)CC2)c2ccccc21 [quisinostat]
Method in brief: as §1

tipifarnib = compound: Cn1cncc1[C@@](N)(c1ccc(Cl)cc1)c1ccc2c(c1)c(-c1cccc(Cl)c1)cc(=O)n2C [tipifarnib]
Method in brief: as §1

[6] = compound: NC(=O)Nc1cc(-c2cccc(F)c2)sc1C(=O)N[C@H]1CCCNC1
Method in brief: as §1

[7] = compound: NC(=O)c1cnc(N[C@@H]2CCCC[C@@H]2N)nc1Nc1cccc(-n2nccn2)c1
Method in brief: as §1

[8] = compound: NC1(c2ccc(-c3nc4ccn5c(=O)[nH]nc5c4cc3-c3ccccc3)cc2)CCC1
Method in brief: as §1

Measured: log2 fold change

SPINDOC (UniProt Q9BUA3)
inactive: lapatinib 0.003 | pictilisib -0.022 | crizotinib 0.074 | [1] 0.009 | duvelisib 0.014 | gandotinib 0.163 | tozasertib -0.029 | doramapimod -0.008 | bafetinib 0.035 | [2] 0.065 | nilotinib 0.092 | [3] 0.031 | dasatinib 0.046 | [4] -0.037 | [5] 0.003 | quisinostat 0.088 | tipifarnib -0.08 | [6] 0 | [7] -0.038 | [8] 0.027

SQSTM1 (UniProt Q13501)
inactive: lapatinib -0.036 | pictilisib 0.011 | crizotinib 0.007 | [1] 0.044 | duvelisib 0.045 | gandotinib -0.076 | tozasertib -0.014 | doramapimod -0.022 | bafetinib -0.005 | [2] -0.044 | nilotinib 0.006 | [3] 0.028 | dasatinib 0.021 | [4] 0.012 | [5] -0.014 | quisinostat -0.005 | tipifarnib 0.021 | [6] 0.042 | [7] 0.007 | [8] 0.02

STAG1 (UniProt Q8WVM7)
inactive: lapatinib -0.079 | pictilisib 0.205 | crizotinib -0.011 | [1] 0.018 | duvelisib -0.019 | gandotinib -0.052 | tozasertib -0.03 | doramapimod -0.098 | bafetinib 0.115 | [2] 0.229 | nilotinib 0.05 | [3] -0.051 | dasatinib 0.038 | [4] 0.011 | [5] -0.027 | quisinostat 0.072 | tipifarnib -0.022 | [6] 0.05 | [7] 0.033 | [8] -0.017

SRSF4 (UniProt Q08170)
inactive: lapatinib 0.01 | pictilisib 0.001 | crizotinib 0.021 | [1] 0.023 | duvelisib 0.014 | gandotinib -0.133 | tozasertib 0.055 | doramapimod 0.041 | bafetinib 0.021 | [2] -0.103 | nilotinib 0.003 | [3] -0.001 | dasatinib -0.003 | [4] 0.003 | [5] 0.049 | quisinostat 0.036 | tipifarnib 0.03 | [6] -0.062 | [7] 0.025 | [8] 0.011

SRF (UniProt P11831)
inactive: lapatinib 0.016 | pictilisib -0.024 | crizotinib 0.095 | [1] 0.129 | duvelisib 0.042 | gandotinib 0.009 | tozasertib -0.137 | doramapimod -0.024 | bafetinib 0.039 | [2] -0.198 | nilotinib -0.15 | [3] 0.091 | dasatinib -0.023 | [4] -0.058 | [5] 0.047 | quisinostat -0.064 | tipifarnib -0.062 | [6] -0.019 | [7] -0.004 | [8] -0.029

STAT1 (UniProt P42224)
inactive: lapatinib -0.011 | pictilisib 0.001 | crizotinib -0.049 | [1] -0.044 | duvelisib -0.044 | gandotinib -0.027 | tozasertib 0.008 | doramapimod 0.027 | bafetinib -0.072 | [2] 0.084 | nilotinib -0.047 | [3] 0.014 | dasatinib -0.042 | [4] -0.01 | [5] 0.005 | quisinostat -0.054 | tipifarnib -0.007 | [6] 0.048 | [7] -0.004 | [8] -0.024

STAMBP (UniProt O95630)
inactive: lapatinib 0.011 | pictilisib 0.013 | crizotinib 0.064 | [1] -0.035 | duvelisib -0.007 | gandotinib -0.047 | tozasertib -0.005 | doramapimod -0.013 | bafetinib 0.022 | [2] -0.026 | nilotinib -0.028 | [3] 0.024 | dasatinib 0.036 | [4] -0.002 | [5] 0.008 | quisinostat 0.035 | tipifarnib -0.033 | [6] 0.014 | [7] 0.005 | [8] -0.027

SPR (UniProt P35270)
active: pictilisib 0.472 | gandotinib 0.467
inactive: lapatinib -0.015 | crizotinib 0.276 | [1] -0.029 | duvelisib -0.059 | tozasertib 0.025 | doramapimod -0.06 | bafetinib -0.09 | [2] -0.117 | nilotinib -0.063 | [3] 0.01 | dasatinib 0.201 | [4] 0.012 | [5] 0.075 | quisinostat 0.077 | tipifarnib 0.035 | [6] 0.01 | [7] 0.02 | [8] 0.009

SRP9 (UniProt P49458)
inactive: lapatinib 0 | pictilisib 0.043 | crizotinib 0.014 | [1] 0.043 | duvelisib 0.026 | gandotinib -0.015 | tozasertib 0.026 | doramapimod 0.004 | bafetinib 0.013 | [2] 0.037 | nilotinib -0.058 | [3] 0.01 | dasatinib 0.032 | [4] -0.025 | [5] 0.006 | quisinostat 0.026 | tipifarnib 0.026 | [6] -0.053 | [7] -0.01 | [8] 0.007

SRRM2 (UniProt Q9UQ35)
inactive: lapatinib 0.042 | pictilisib 0.004 | crizotinib 0.013 | [1] -0.104 | duvelisib 0.022 | gandotinib 0.02 | tozasertib -0.012 | doramapimod 0.034 | bafetinib -0.02 | [2] 0.029 | nilotinib -0.01 | [3] 0.028 | dasatinib 0.012 | [4] -0.004 | [5] 0 | quisinostat -0.018 | tipifarnib 0.002 | [6] -0.052 | [7] 0.042 | [8] 0.019

2 records picked at random from the list so far:
SPR (UniProt P35270)
active: pictilisib 0.472 | gandotinib 0.467
inactive: lapatinib -0.015 | crizotinib 0.276 | [1] -0.029 | duvelisib -0.059 | tozasertib 0.025 | doramapimod -0.06 | bafetinib -0.09 | [2] -0.117 | nilotinib -0.063 | [3] 0.01 | dasatinib 0.201 | [4] 0.012 | [5] 0.075 | quisinostat 0.077 | tipifarnib 0.035 | [6] 0.01 | [7] 0.02 | [8] 0.009

SRRM2 (UniProt Q9UQ35)
inactive: lapatinib 0.042 | pictilisib 0.004 | crizotinib 0.013 | [1] -0.104 | duvelisib 0.022 | gandotinib 0.02 | tozasertib -0.012 | doramapimod 0.034 | bafetinib -0.02 | [2] 0.029 | nilotinib -0.01 | [3] 0.028 | dasatinib 0.012 | [4] -0.004 | [5] 0 | quisinostat -0.018 | tipifarnib 0.002 | [6] -0.052 | [7] 0.042 | [8] 0.019

Following part:

SSR1 (UniProt P43307)
inactive: lapatinib 0.009 | pictilisib 0.009 | crizotinib -0.019 | [1] -0.049 | duvelisib 0.014 | gandotinib 0.061 | tozasertib 0.048 | doramapimod -0.028 | bafetinib -0.014 | [2] 0.081 | nilotinib 0.027 | [3] -0.053 | dasatinib -0.012 | [4] -0.055 | [5] 0.002 | quisinostat -0.079 | tipifarnib -0.072 | [6] 0.004 | [7] -0.022 | [8] 0.001

SSB (UniProt P05455)
inactive: lapatinib -0.024 | pictilisib 0.015 | crizotinib 0.046 | [1] 0.05 | duvelisib -0.01 | gandotinib -0.03 | tozasertib 0.009 | doramapimod -0.032 | bafetinib 0.017 | [2] -0.036 | nilotinib -0.013 | [3] -0.014 | dasatinib -0.008 | [4] 0.006 | [5] -0.018 | quisinostat 0.099 | tipifarnib 0.022 | [6] 0.001 | [7] -0.013 | [8] 0.012

ST7 (UniProt Q9NRC1)
inactive: lapatinib -0.033 | pictilisib -0.012 | crizotinib -0.026 | [1] -0.051 | duvelisib -0.054 | gandotinib 0 | tozasertib 0.029 | doramapimod -0.024 | bafetinib 0.01 | [2] 0.191 | nilotinib -0.081 | [3] -0.012 | dasatinib 0 | [4] 0.074 | [5] 0.005 | quisinostat 0.004 | tipifarnib 0.039 | [6] 0.031 | [7] -0.035 | [8] 0.05

SPTBN4 (UniProt Q9H254)
inactive: lapatinib 0.016 | pictilisib 0.125 | crizotinib 0.047 | [1] -0.095 | duvelisib 0.087 | gandotinib 0.123 | tozasertib -0.025 | doramapimod -0.025 | bafetinib 0.04 | [2] 0.111 | nilotinib -0.07 | [3] 0.103 | dasatinib -0.124 | [4] 0.074 | [5] -0.032 | quisinostat 0.081 | tipifarnib -0.096 | [6] -0.017 | [7] 0.045 | [8] -0.067

STAT2 (UniProt P52630)
inactive: lapatinib 0.005 | pictilisib -0.024 | crizotinib -0.146 | [1] 0.008 | duvelisib 0.004 | gandotinib -0.082 | tozasertib 0.047 | doramapimod 0.037 | bafetinib -0.078 | [2] 0.093 | nilotinib -0.017 | [3] 0.006 | dasatinib -0.024 | [4] -0.086 | [5] 0.025 | quisinostat -0.117 | tipifarnib -0.024 | [6] 0.054 | [7] 0.016 | [8] -0.016

SPG21 (UniProt Q9NZD8)
inactive: lapatinib -0.071 | pictilisib 0.009 | crizotinib -0.014 | [1] -0.03 | duvelisib -0.018 | gandotinib -0.089 | tozasertib 0.006 | doramapimod 0.042 | bafetinib 0.009 | [2] 0.149 | nilotinib 0.02 | [3] -0.019 | dasatinib 0.003 | [4] 0.036 | [5] 0.053 | quisinostat 0.036 | tipifarnib -0.033 | [6] -0.002 | [7] 0.061 | [8] 0.024
